No constants are given. Whether binding was seen depends on the method and setting. Some entries that bind do so weakly or less than the wild type.
Target: vitronectin (UniProt P04004)
Assay: AFM single-cell force spectroscopy (adhesion force and single rupture events); single fibroblast on a ConA-coated cantilever brought onto glass coated with 50 μg/ml substrate protein, contact force 1 nN, contact times 5-120 s, retraction at 2-40 μm/s, 37 °C, SCFS medium pH 7.2; only the target purified

Sequences of proteins named here, by UniProt entry; tags and fusion partners are left off. A change or cut given only in a name is not applied to a line headed by its entry. Residues count along the entry.
UniProt P04004, residues 20-478: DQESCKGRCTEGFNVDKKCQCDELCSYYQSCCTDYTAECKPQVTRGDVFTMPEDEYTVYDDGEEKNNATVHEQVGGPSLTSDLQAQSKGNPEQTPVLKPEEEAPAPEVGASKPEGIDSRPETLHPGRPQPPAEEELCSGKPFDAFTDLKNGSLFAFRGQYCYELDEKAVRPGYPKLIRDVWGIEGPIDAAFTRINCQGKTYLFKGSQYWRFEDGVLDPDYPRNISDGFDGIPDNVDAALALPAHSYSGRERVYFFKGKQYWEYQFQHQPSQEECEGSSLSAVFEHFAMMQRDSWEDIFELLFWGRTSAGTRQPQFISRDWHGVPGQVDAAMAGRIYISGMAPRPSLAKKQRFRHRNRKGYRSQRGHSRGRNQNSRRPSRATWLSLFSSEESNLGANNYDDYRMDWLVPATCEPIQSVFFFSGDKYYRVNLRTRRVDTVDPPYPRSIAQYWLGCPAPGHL
UniProt P43406: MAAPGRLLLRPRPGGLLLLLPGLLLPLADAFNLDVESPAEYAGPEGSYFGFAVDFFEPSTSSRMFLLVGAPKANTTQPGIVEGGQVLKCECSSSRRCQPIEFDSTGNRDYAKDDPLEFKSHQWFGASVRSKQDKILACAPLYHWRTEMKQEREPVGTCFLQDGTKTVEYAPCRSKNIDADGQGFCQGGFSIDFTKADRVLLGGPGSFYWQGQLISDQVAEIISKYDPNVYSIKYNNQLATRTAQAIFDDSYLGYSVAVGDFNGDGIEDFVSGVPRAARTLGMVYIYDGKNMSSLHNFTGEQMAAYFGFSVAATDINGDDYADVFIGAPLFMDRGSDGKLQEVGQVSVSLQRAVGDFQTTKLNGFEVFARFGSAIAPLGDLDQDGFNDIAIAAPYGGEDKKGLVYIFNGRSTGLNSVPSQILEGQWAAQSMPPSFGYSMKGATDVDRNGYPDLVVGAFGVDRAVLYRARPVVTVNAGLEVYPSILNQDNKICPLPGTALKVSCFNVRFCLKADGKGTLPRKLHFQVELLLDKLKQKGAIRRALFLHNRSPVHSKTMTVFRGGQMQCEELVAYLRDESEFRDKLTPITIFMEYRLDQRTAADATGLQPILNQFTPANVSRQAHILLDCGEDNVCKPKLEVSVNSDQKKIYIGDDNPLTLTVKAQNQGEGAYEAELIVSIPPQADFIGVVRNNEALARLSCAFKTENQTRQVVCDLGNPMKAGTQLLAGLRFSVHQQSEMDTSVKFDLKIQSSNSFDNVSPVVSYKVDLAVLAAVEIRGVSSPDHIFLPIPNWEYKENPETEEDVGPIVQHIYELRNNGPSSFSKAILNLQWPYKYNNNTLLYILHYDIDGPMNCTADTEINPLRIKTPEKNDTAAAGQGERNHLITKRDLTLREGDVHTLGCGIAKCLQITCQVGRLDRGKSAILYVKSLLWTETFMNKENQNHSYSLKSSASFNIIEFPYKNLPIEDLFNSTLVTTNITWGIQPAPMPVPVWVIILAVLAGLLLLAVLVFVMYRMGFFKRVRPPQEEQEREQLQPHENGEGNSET

Substance	binding
αVβ3 integrin (from UniProt P43406 31-1044; O54890 26-787) (receptor)	binds
αVβ5 integrin (from UniProt P43406 31-1044; O70309 24-798) (receptor)	binds

Source: PMC13601624
